[ ]: non-standard residue; d: D form. The star is where a group is joined. Trt = c1ccc(C(c2ccccc2)(c2ccccc2)*)cc1; hArg = N=C(N)NCCCC[C@H](N)C(=O)O; OtBu = CC(C)(C)O*; Mpa = O=C(O)CCS
Test: general procedure: solution-phase peptide synthesis; EDAC.HCl/HOBT
Settings: coupling step

Substance	crude HPLC purity
[Mpa](Trt)[hArg]GD(OtBu)WPC(Trt)-NH2	95%
H-GD(OtBu)WPC(Trt)-NH2	95%

Reference: patent US20160017002 (published 2016)
